This is an account of results in publication PMC4996943.

In one assay the target is HisMax-p53 (human) (UniProt P04637). The assay can be described thus: pull-down; HEK293T cells co-expressing HisMax-p53 and HA-EFP (or C13/16S) or Myc-HERC5; lysates in buffer-A with 10 mM imidazole; Ni2+-NTA agarose 1 h at 4 °C, washed with 20 mM imidazole; immunoblot with anti-HA or anti-Myc.
A further assay has as its target HA-EFP C13/16S (UniProt Q14258). The assay can be described thus: co-IP; HEK293T cells co-expressing HA-EFP (or C13/16S) and HisMax-p53; lysates in buffer-A (50 mM Tris-HCl pH 7.4, 150 mM NaCl, 1 mM EDTA, 0.2% Triton X-100); immunoprecipitation with anti-HA antibody 1 h at 4 °C, protein A-Sepharose; immunoblot with anti-Xpress. In general terms: A western blot detects proteins with antibodies after separation by electrophoresis.

The next assay addresses HA-EFP (UniProt Q14258). The assay is described as above.

These are yes or no findings as the source states them, for the method shown. Binding seen in cells or lysates may run through a third protein. Some entries that bind do so weakly or less than the wild type.

As for “HA-EFP (from UniProt Q14258 1-630) (enzyme)”, the binding result with HisMax-p53 (human) is “binds”.
Still for that read-out and setting: to “HA-EFP C13/16S (from UniProt Q14258 1-630) (enzyme)” belongs “binds”.
In the case of HisMax-p53 (from UniProt P04637 1-393), the binding entry in the assay with HA-EFP C13/16S and with HA-EFP was “binds” each time.
